The target of assay [1] is T1, Flag-tagged circUBE2G1-99aa (human) (UniProt P62253).
T1 sequence: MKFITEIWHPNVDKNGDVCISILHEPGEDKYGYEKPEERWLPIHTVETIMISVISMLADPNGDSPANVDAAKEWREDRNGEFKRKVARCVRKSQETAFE
Description: co-IP; Pierce Co-IP kit; cell lysates incubated with primary antibody immobilised on AminoLink Plus Coupling Resin overnight at 4 °C, three washes, eluates analysed by Western blot; done in both directions and with truncation variants of both proteins. For orientation: In western blotting, separated proteins are transferred to a membrane and probed.

By UniProt entry, the sequences of proteins in these tests, tags left out. Where a name states a change or a piece, a line headed by the entry shows the natural chain unless it says otherwise.
UniProt P06733: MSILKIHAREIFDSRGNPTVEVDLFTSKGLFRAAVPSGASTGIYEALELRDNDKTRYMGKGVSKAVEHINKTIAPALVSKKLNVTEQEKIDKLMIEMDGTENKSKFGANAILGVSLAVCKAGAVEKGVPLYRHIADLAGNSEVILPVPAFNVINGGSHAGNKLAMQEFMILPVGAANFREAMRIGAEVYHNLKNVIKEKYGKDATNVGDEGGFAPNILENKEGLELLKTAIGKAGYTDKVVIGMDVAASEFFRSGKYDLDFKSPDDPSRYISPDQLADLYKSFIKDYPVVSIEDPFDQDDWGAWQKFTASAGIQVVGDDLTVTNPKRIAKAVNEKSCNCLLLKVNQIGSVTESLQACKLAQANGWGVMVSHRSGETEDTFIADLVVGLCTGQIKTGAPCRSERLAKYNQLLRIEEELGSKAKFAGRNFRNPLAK

Assay [2] concerns the target enolase 1 (ENO1) (human (endogenous in HGC-27)) (UniProt P06733). The assay is described as above.

Results are given in words; binding and its absence hold for the method and conditions named. Binding seen in cells or lysates may run through a third protein. Some entries that bind do so weakly or less than the wild type. Where a sequence is shown, tags or fusion partners need not be part of it.

On to “TIM barrel domain of ENO1 (residues 140-434) (from UniProt P06733 140-434) (domain or fragment)”, for which the binding result in assay [1] was “binds”.
Same read-out and setting: under “enolase 1 (ENO1) (from UniProt P06733 1-434) (enzyme)” stands “binds”.

B1: Flag-tagged circUBE2G1-99aa (protein, UniProt P62253 72-170)
chain: MKFITEIWHPNVDKNGDVCISILHEPGEDKYGYEKPEERWLPIHTVETIMISVISMLADPNGDSPANVDAAKEWREDRNGEFKRKVARCVRKSQETAFE
Turning to B1, the binding result in assay [2] was “binds”.

The record behind these values is article PMC12307642.
